Experiment [1] has as its target 人PD1蛋白 (human) (UniProt Q15116). Put plainly: phage ELISA; VHH displayed on T7 phage, PD1 extracellular domain coated, compared with wild-type T7 phage.
For experiment [2] the target is unchanged. Put plainly: ELISA; antigen coated, purified nanobody detected with anti-HA antibody. On the technique in general: An ELISA detects its analyte on a solid surface through an enzyme-linked reagent.

The chains behind the UniProt entries cited, without tags or fusion partners. Residues count along the entry.
UniProt Q15116, residues 25-170: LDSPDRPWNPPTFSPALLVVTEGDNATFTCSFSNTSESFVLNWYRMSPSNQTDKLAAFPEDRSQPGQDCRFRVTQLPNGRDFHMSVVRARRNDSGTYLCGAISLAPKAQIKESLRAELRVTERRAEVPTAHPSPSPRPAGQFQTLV

For 1 molecule, binding results are on record in patent CN114349861A.

These are yes or no findings as the source states them, for the method shown. Some results given as binding are weak or reduced against the parent protein; the word gives no strength.

B1: 抗PD1-VHH1 (VHH)
VHH: QVQLVESGGGSVQAGGSLRLSCAASGYASSSYSMGWFRQAPGKEREAVAGVNRDGSTRYADSVKGRFTISKDNAKNTLYLQMNSLKPEDTAMYYCAADRGWLPRRPDYWGQGTQVTVSS
Regarding B1, the binding entry with 人PD1蛋白 (human) [1] and in the experiment with 人PD1蛋白 (human) [2] was “binds” each time.
